This is one part of the list.
Key:
Assay in all cases: glycan array binding signal (z-score within array); higher = stronger binding
Details in all cases: glycan notation: IUPAC condensed, linker removed
[1] = molecular target: Neu5Ac(a2-3)Gal(b1-4)GlcNAc
Method in brief: (§1)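 Arrays were curated from the Consortium for Functional Glycomics database, 3228 in total, and kept only where the protein sequence was available. Binding is expressed as a within-array Z-score. This score was averaged across arrays of the same protein sequence at different concentrations or buffers and across linkers, and negative values can be read as non-binding.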

[2] = molecular target: Neu5Ac(a2-3)Gal(b1-4)GlcNAc(b1-2)Man
Method in brief: as §1

[3] = molecular target: Neu5Ac(a2-3)Gal(b1-4)GlcNAc(b1-2)Man(a1-3)[GlcNAc(b1-4)][Neu5Ac(a2-3)Gal(b1-4)GlcNAc(b1-2)Man(a1-6)]Man(b1-4)GlcNAc(b1-4)GlcNAc
Method in brief: as §1

[4] = molecular target: Neu5Ac(a2-3)Gal(b1-4)GlcNAc(b1-2)Man(a1-3)[Neu5Ac(a2-3)Gal(b1-4)GlcNAc(b1-2)Man(a1-6)]Man(b1-4)GlcNAc(b1-4)GlcNAc
Method in brief: as §1

[5] = molecular target: Neu5Ac(a2-3)Gal(b1-4)GlcNAc(b1-2)Man(a1-3)[Neu5Ac(a2-3)Gal(b1-4)GlcNAc(b1-2)Man(a1-6)]Man(b1-4)GlcNAc(b1-4)[Fuc(a1-6)]GlcNAc
Method in brief: as §1

[6] = molecular target: Neu5Ac(a2-3)Gal(b1-4)GlcNAc(b1-2)Man(a1-3)[Neu5Ac(a2-6)Gal(b1-4)GlcNAc(b1-2)Man(a1-6)]Man(b1-4)GlcNAc(b1-4)GlcNAc
Method in brief: as §1

[7] = molecular target: Neu5Ac(a2-3)Gal(b1-4)GlcNAc(b1-2)[Neu5Ac(a2-3)Gal(b1-4)GlcNAc(b1-4)]Man(a1-3)[GlcNAc(b1-4)][Neu5Ac(a2-3)Gal(b1-4)GlcNAc(b1-2)[Neu5Ac(a2-3)Gal(b1-4)GlcNAc(b1-6)]Man(a1-6)]Man(b1-4)GlcNAc(b1-4)GlcNAc
Method in brief: as §1

[8] = molecular target: Neu5Ac(a2-3)Gal(b1-4)GlcNAc(b1-2)[Neu5Ac(a2-3)Gal(b1-4)GlcNAc(b1-4)]Man(a1-3)[GlcNAc(b1-4)][Neu5Ac(a2-3)Gal(b1-4)GlcNAc(b1-4)Man(a1-6)]Man(b1-4)GlcNAc(b1-4)GlcNAc
Method in brief: as §1

[9] = molecular target: Neu5Ac(a2-3)Gal(b1-4)GlcNAc(b1-2)[Neu5Ac(a2-3)Gal(b1-4)GlcNAc(b1-6)]Man(a1-6)[Neu5Ac(a2-3)Gal(b1-4)GlcNAc(b1-2)Man(a1-3)]Man(b1-4)GlcNAc(b1-4)GlcNAc
Method in brief: as §1

[10] = molecular target: Neu5Ac(a2-3)Gal(b1-4)GlcNAc(b1-2)[Neu5Ac(a2-3)Gal(b1-4)GlcNAc(b1-6)]Man(a1-6)[Neu5Ac(a2-3)Gal(b1-4)GlcNAc(b1-2)Man(a1-3)][GlcNAc(b1-4)]Man(b1-4)GlcNAc(b1-4)GlcNAc
Method in brief: as §1

[11] = molecular target: Neu5Ac(a2-3)Gal(b1-4)GlcNAc(b1-3)Gal
Method in brief: as §1

[12] = molecular target: Neu5Ac(a2-3)Gal(b1-4)GlcNAc(b1-3)Gal(b1-3)GlcNAc
Method in brief: as §1

[13] = molecular target: Neu5Ac(a2-3)Gal(b1-4)GlcNAc(b1-3)Gal(b1-4)GlcNAc
Method in brief: as §1

[14] = molecular target: Neu5Ac(a2-3)Gal(b1-4)GlcNAc(b1-3)Gal(b1-4)GlcNAc(b1-2)Man(a1-3)[Neu5Ac(a2-3)Gal(b1-4)GlcNAc(b1-3)Gal(b1-4)GlcNAc(b1-2)Man(a1-6)]Man(b1-4)GlcNAc(b1-4)GlcNAc
Method in brief: as §1

[15] = molecular target: Neu5Ac(a2-3)Gal(b1-4)GlcNAc(b1-3)Gal(b1-4)GlcNAc(b1-3)Gal(b1-4)GlcNAc
Method in brief: as §1

[16] = molecular target: Neu5Ac(a2-3)Gal(b1-4)GlcNAc(b1-3)Gal(b1-4)GlcNAc(b1-3)Gal(b1-4)GlcNAc(b1-2)Man(a1-3)[Neu5Ac(a2-3)Gal(b1-4)GlcNAc(b1-3)Gal(b1-4)GlcNAc(b1-3)Gal(b1-4)GlcNAc(b1-2)Man(a1-6)]GalNAc
Method in brief: as §1

[17] = molecular target: Neu5Ac(a2-3)Gal(b1-4)GlcNAc(b1-3)Gal(b1-4)GlcNAc(b1-3)GalNAc
Method in brief: as §1

[18] = molecular target: Neu5Ac(a2-3)Gal(b1-4)GlcNAc(b1-3)Gal(b1-4)GlcNAc(b1-3)[Neu5Ac(a2-3)Gal(b1-4)GlcNAc(b1-3)Gal(b1-4)GlcNAc(b1-6)]GalNAc
Method in brief: as §1

[19] = molecular target: Neu5Ac(a2-3)Gal(b1-4)GlcNAc(b1-3)Gal(b1-4)GlcNAc(b1-6)[Gal(b1-3)]GalNAc
Method in brief: as §1

[20] = molecular target: Neu5Ac(a2-3)Gal(b1-4)GlcNAc(b1-3)Gal(b1-4)[Fuc(a1-3)]GlcNAc
Method in brief: as §1

[21] = molecular target: Neu5Ac(a2-3)Gal(b1-4)GlcNAc(b1-3)GalNAc
Method in brief: as §1

[22] = molecular target: Neu5Ac(a2-3)Gal(b1-4)GlcNAc(b1-3)[Neu5Ac(a2-3)Gal(b1-4)GlcNAc(b1-6)]GalNAc
Method in brief: as §1

[23] = molecular target: Neu5Ac(a2-3)Gal(b1-4)GlcNAc(b1-6)GalNAc
Method in brief: as §1

[24] = molecular target: Neu5Ac(a2-3)Gal(b1-4)GlcNAc(b1-6)[Gal(b1-3)]GalNAc
Method in brief: as §1

[25] = molecular target: Neu5Ac(a2-3)Gal(b1-4)GlcNAc(b1-6)[Neu5Ac(a2-3)Gal(b1-3)]GalNAc
Method in brief: as §1

[26] = molecular target: Neu5Ac(a2-3)Gal(b1-4)GlcNAc6S
Method in brief: as §1

[27] = molecular target: Neu5Ac(a2-3)Gal(b1-4)[Fuc(a1-3)]GlcNAc
Method in brief: as §1

[28] = molecular target: Neu5Ac(a2-3)Gal(b1-4)[Fuc(a1-3)]GlcNAc(b1-2)Man
Method in brief: as §1

[29] = molecular target: Neu5Ac(a2-3)Gal(b1-4)[Fuc(a1-3)]GlcNAc(b1-3)Gal
Method in brief: as §1

[30] = molecular target: Neu5Ac(a2-3)Gal(b1-4)[Fuc(a1-3)]GlcNAc(b1-3)Gal(b1-4)GlcNAc
Method in brief: as §1

[31] = molecular target: Neu5Ac(a2-3)Gal(b1-4)[Fuc(a1-3)]GlcNAc(b1-3)Gal(b1-4)[Fuc(a1-3)]GlcNAc(b1-3)Gal(b1-4)[Fuc(a1-3)]GlcNAc
Method in brief: as §1

[32] = molecular target: Neu5Ac(a2-3)Gal(b1-4)[Fuc(a1-3)]GlcNAc(b1-3)GalNAc
Method in brief: as §1

[33] = molecular target: Neu5Ac(a2-3)Gal(b1-4)[Fuc(a1-3)]GlcNAc(b1-6)[Gal(b1-3)]GalNAc
Method in brief: as §1

[34] = molecular target: Neu5Ac(a2-3)Gal(b1-4)[Fuc(a1-3)]GlcNAc(b1-6)[Neu5Ac(a2-3)Gal(b1-3)]GalNAc
Method in brief: as §1

[35] = molecular target: Neu5Ac(a2-3)Gal(b1-4)[Fuc(a1-3)]GlcNAc6S
Method in brief: as §1

[36] = molecular target: Neu5Ac(a2-3)Gal6S(b1-4)GlcNAc
Method in brief: as §1

[37] = molecular target: Neu5Ac(a2-3)Gal6S(b1-4)[Fuc(a1-3)]GlcNAc
Method in brief: as §1

[38] = molecular target: Neu5Ac(a2-3)GalNAc
Method in brief: as §1

B1: FimA-N2 (Actinomyces oris) (protein)
chain: MHHHHHHSSGVDLGTENLYFQSNAWIYDVNVYPKNEAIDVDKTIQAQKLNGYGVGSLIKFPVESTAPTLDAKSFYKYFQLKDTLDERLSEVTATDVSLEGTPLQPTDYKVETKQQTVTVTFTAEGLKKIKAAPGKKVSAVFQGKVTKAGNGAITNRAQVISDTLYAEQPPTPETPPTDPENPPTSDEVISRWGDLSIKKVDTHQQGQTKA
glycan array binding signal (z-score) [1]: -0.301
glycan array binding signal (z-score) [2]: 0.315
glycan array binding signal (z-score) [3]: -0.985
glycan array binding signal (z-score) [4]: -0.393
glycan array binding signal (z-score) [5]: -0.844
glycan array binding signal (z-score) [6]: 1
glycan array binding signal (z-score) [7]: -0.995
glycan array binding signal (z-score) [8]: -0.483
glycan array binding signal (z-score) [9]: -0.853
glycan array binding signal (z-score) [10]: -0.874
glycan array binding signal (z-score) [11]: -0.62
glycan array binding signal (z-score) [12]: -0.995
glycan array binding signal (z-score) [13]: -0.149
glycan array binding signal (z-score) [14]: -0.355
glycan array binding signal (z-score) [15]: 1.11
glycan array binding signal (z-score) [16]: 0.122
glycan array binding signal (z-score) [17]: -0.528
glycan array binding signal (z-score) [18]: -0.786
glycan array binding signal (z-score) [19]: -0.607
glycan array binding signal (z-score) [20]: -0.379
glycan array binding signal (z-score) [21]: -0.365
glycan array binding signal (z-score) [22]: -0.935
glycan array binding signal (z-score) [23]: 1.38
glycan array binding signal (z-score) [24]: 0.27
glycan array binding signal (z-score) [25]: -1.4
glycan array binding signal (z-score) [26]: 1.27
glycan array binding signal (z-score) [27]: -1.19
glycan array binding signal (z-score) [28]: -1.21
glycan array binding signal (z-score) [29]: -0.499
glycan array binding signal (z-score) [30]: 0.553
glycan array binding signal (z-score) [31]: -0.098
glycan array binding signal (z-score) [32]: 0.659
glycan array binding signal (z-score) [33]: 1.73
glycan array binding signal (z-score) [34]: -0.322
glycan array binding signal (z-score) [35]: 0.808
glycan array binding signal (z-score) [36]: -0.089
glycan array binding signal (z-score) [37]: -0.662
glycan array binding signal (z-score) [38]: -0.244
